One molecule from publication doi:10.1101/824458 (bioRxiv, 2019) can be followed below.

Results are given in words; binding and its absence hold for the method and conditions named. Sequences can lack the tags named with a protein.

The assay concerns the target T1, viperin-ΔN50 (residues 50-361), recombinant, C-terminal His6-tagged, iron-sulfur cluster reconstituted (human) (UniProt Q8WXG1).
T1 sequence: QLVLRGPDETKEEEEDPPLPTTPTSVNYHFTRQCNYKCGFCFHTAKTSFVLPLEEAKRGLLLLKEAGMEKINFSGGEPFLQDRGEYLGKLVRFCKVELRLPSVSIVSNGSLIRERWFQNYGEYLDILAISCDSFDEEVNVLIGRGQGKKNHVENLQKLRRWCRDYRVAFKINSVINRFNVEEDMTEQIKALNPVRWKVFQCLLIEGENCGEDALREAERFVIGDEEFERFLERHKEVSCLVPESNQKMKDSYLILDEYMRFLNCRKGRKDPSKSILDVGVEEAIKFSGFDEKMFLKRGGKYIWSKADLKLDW
The assay can be described thus: cross-linking.

B1: VAP-33-ΔC20 (recombinant human VAP-33 protein, residues 1-227) (domain or fragment, UniProt Q9P0L0 1-227, looked up)
chain: MASASGAMAKHEQILVLDPPTDLKFKGPFTDVVTTNLKLRNPSDRKVCFKVKTTAPRRYCVRPNSGIIDPGSTVTVSVMLQPFDYDPNEKSKHKFMVQTIFAPPNTSDMEAVWKEAKPDELMDSKLRCVFEMPNENDKLNDMEPSKAVPLNASKQDGPMPKPHSVSLNDTETRKLMEECKRLQGEMMKLSEENRHLRDEGLRLRKVAHSDKPGSTSTASFRDNVTSP
Take B1: the binding entry is “no binding”.
